Two substances from publication PMC11040352 (Advanced Science, 2024) can be followed below.

Some peptides are written in HELM: one residue between dots, names in brackets for other building blocks, links after the first $.

This data set can be described thus: general procedure: Fmoc solid-phase peptide synthesis; Rink Amide resin; Oxyma/DIC; HBTU/HOBT/DIPEA for PEG linker.

NH2‐PEG3‐ACVPCADFPIWYC‐NH2 displayed a cyclisation yield (cyclisation step, on linear precursor, bicyclic, sequence written open) of 37%. Under “conjugation step”, “PEPTIDE1{[NOTA].[PEG3].A.C.V.P.C.A.D.F.P.I.W.Y.C.[am]}|CHEM1{[TBMB]}$PEPTIDE1,CHEM1,4:R3-1:R1|PEPTIDE1,CHEM1,7:R3-1:R2|PEPTIDE1,CHEM1,15:R3-1:R3$$$V2.0” yielded a conjugation yield of 52%.
